Data: patent publication US20100022559A1, “BISOXIMES AS FUNGICIDES” (BAYER CROPSCIENCE AG, priority 2006, published 2010)
Some results were stated once for a whole list of compounds, not compound by compound. For at least one compound, name, drawing or mass did not settle the structure.

System: Pyrenophora teres
Assay: Pyrenophora teres test (barley)/protective
Assay type: in vivo
Conditions: active compound concentration 1000 ppm, protective, evaluation 8 days after inoculation

| Structure (SMILES) | efficacy |
| --- | --- |
| COC(CON=C(C)c1cc(C)cc(C)n1)CON=C(C)c1cc(C)cc(C)n1 (centres unmarked) [Compound 552] | ≥ 70% |
| CC(=NOCC1(CON=C(C)c2cc(C)cc(C)n2)CCCCC1)c1cc(C)cc(C)n1 [Compound 553] | ≥ 70% |
| CC(=NOCCCCCCON=C(C)c1cc(C)cc(C)n1)c1cccc(C)n1 [Compound 460] | ≥ 70% |
| CC[Si](CC)(CON=C(C)c1cccc(C)n1)CON=C(C)c1cccc(C)n1 [Compound 782] | ≥ 70% |
| CC(=NOCC(C)(C)CON=C(C)c1cccc(Cc2ccccc2)n1)c1cccc(C)n1 [Compound 364] | ≥ 70% |
| CCOc1cc(C)nc(C(C)=NOCC(C)CON=C(C)c2cc(OCC)cc(C)n2)c1 (centres unmarked) [Compound 683] | ≥ 70% |
| CC(=NOCC(C)(C)CON=C(C)c1cccc(C(C)C)n1)c1cccc(C)n1 [Compound 491] | ≥ 70% |
| CC(=NOCC(C)(C)CON=C(C)c1ccc2c(n1)CCCC2)c1ccc2c(n1)CCCC2 [Compound 303] | ≥ 70% |
| CCCC(CON=C(C)c1cc(C)cc(C)n1)CON=C(C)c1cc(C)cc(C)n1 (centres unmarked) [Compound 555] | ≥ 70% |
| CCC(=NOCC(C)(C)CON=C(CC)c1cc(C)cc(C)n1)c1cc(C)cc(C)n1 (mixture of isomers) [Compound 571] | ≥ 70% |
| CC(=NOCC(CON=C(C)c1cccc(C)n1)Cc1ccccc1)c1cccc(C)n1 (centres unmarked) [Compound 583] | ≥ 70% |
| CC(=NOCC1(CON=C(C)c2ccc(C)c(C)n2)CC1)c1ccc(C)c(C)n1 [Compound 315] | ≥ 70% |
| CC(=NOCC(CON=C(C)c1cc(C)cc(C)n1)c1ccccc1)c1cc(C)cc(C)n1 (centres unmarked) [Compound 554] | ≥ 70% |
| CCC(C)(CON=C(C)c1cccc(C)n1)CON=C(C)c1cccc(C)n1 (centres unmarked) [Compound 788] | ≥ 70% |

System: Venturia inaequalis
Assay: Venturia test (apple)/protective
Assay type: in vivo
Conditions: active compound concentration 100 ppm, protective, evaluation 10 days after inoculation

| Structure (SMILES) | efficacy |
| --- | --- |
| CC(=NOCC1(CON=C(C)c2cc(C)cc(C)n2)CCCCC1)c1cc(C)cc(C)n1 [Compound 553] | ≥ 70% |
| CC(=NOCCCCCCON=C(C)c1cc(C)cc(C)n1)c1cccc(C)n1 [Compound 460] | ≥ 70% |
| CC[Si](CC)(CON=C(C)c1cccc(C)n1)CON=C(C)c1cccc(C)n1 [Compound 782] | ≥ 70% |
| CC(=NOCC(C)(C)CON=C(C)c1cccc(Cc2ccccc2)n1)c1cccc(C)n1 [Compound 364] | ≥ 70% |
| CCOc1cc(C)nc(C(C)=NOCC(C)CON=C(C)c2cc(OCC)cc(C)n2)c1 (centres unmarked) [Compound 683] | ≥ 70% |
| CC(=NOCC(C)(C)CON=C(C)c1cccc(C(C)C)n1)c1cccc(C)n1 [Compound 491] | ≥ 70% |
| CCCC(CON=C(C)c1cc(C)cc(C)n1)CON=C(C)c1cc(C)cc(C)n1 (centres unmarked) [Compound 555] | ≥ 70% |
| CCC(=NOCC(C)(C)CON=C(CC)c1cc(C)cc(C)n1)c1cc(C)cc(C)n1 (mixture of isomers) [Compound 571] | ≥ 70% |
| CC(=NOCC1(CON=C(C)c2ccc(C)c(C)n2)CC1)c1ccc(C)c(C)n1 [Compound 315] | ≥ 70% |
| CCC(C)(CON=C(C)c1cccc(C)n1)CON=C(C)c1cccc(C)n1 (centres unmarked) [Compound 788] | ≥ 70% |

System: Sphaerotheca fuliginea
Assay: Sphaerotheca test (cucumber)/protective
Assay type: in vivo
Conditions: active compound concentration 500 ppm, protective, evaluation 7 days after inoculation

| Structure (SMILES) | efficacy |
| --- | --- |
| CC(=NOCC1(CON=C(C)c2cc(C)cc(C)n2)CCCCC1)c1cc(C)cc(C)n1 [Compound 553] | ≥ 70% |
| CC(=NOCCCCCCON=C(C)c1cc(C)cc(C)n1)c1cccc(C)n1 [Compound 460] | ≥ 70% |
| CC(=NOCC(C)(C)CON=C(C)c1cccc(Cc2ccccc2)n1)c1cccc(C)n1 [Compound 364] | ≥ 70% |
| CCOc1cc(C)nc(C(C)=NOCC(C)CON=C(C)c2cc(OCC)cc(C)n2)c1 (centres unmarked) [Compound 683] | ≥ 70% |
| CC(=NOCC(C)(C)CON=C(C)c1cccc(C(C)C)n1)c1cccc(C)n1 [Compound 491] | ≥ 70% |
| CC(=NOCC(C)(C)CON=C(C)c1ccc2c(n1)CCCC2)c1ccc2c(n1)CCCC2 [Compound 303] | ≥ 70% |
| CCCC(CON=C(C)c1cc(C)cc(C)n1)CON=C(C)c1cc(C)cc(C)n1 (centres unmarked) [Compound 555] | ≥ 70% |
| CCC(=NOCC(C)(C)CON=C(CC)c1cc(C)cc(C)n1)c1cc(C)cc(C)n1 (mixture of isomers) [Compound 571] | ≥ 70% |
| CC(=NOCC(CON=C(C)c1cccc(C)n1)Cc1ccccc1)c1cccc(C)n1 (centres unmarked) [Compound 583] | ≥ 70% |
| CC(=NOCC1(CON=C(C)c2ccc(C)c(C)n2)CC1)c1ccc(C)c(C)n1 [Compound 315] | ≥ 70% |
| CCC(C)(CON=C(C)c1cccc(C)n1)CON=C(C)c1cccc(C)n1 (centres unmarked) [Compound 788] | ≥ 70% |

System: Leptosphaeria nodorum
Assay: Leptosphaeria nodorum test (wheat)/protective
Assay type: in vivo
Conditions: active compound concentration 1000 ppm, protective, evaluation 10 days after inoculation

| Structure (SMILES) | efficacy |
| --- | --- |
| COC(CON=C(C)c1cc(C)cc(C)n1)CON=C(C)c1cc(C)cc(C)n1 (centres unmarked) [Compound 552] | ≥ 70% |
| CC(=NOCC1(CON=C(C)c2cc(C)cc(C)n2)CCCCC1)c1cc(C)cc(C)n1 [Compound 553] | ≥ 70% |
| CC(=NOCCCCCCON=C(C)c1cc(C)cc(C)n1)c1cccc(C)n1 [Compound 460] | ≥ 70% |
| CC[Si](CC)(CON=C(C)c1cccc(C)n1)CON=C(C)c1cccc(C)n1 [Compound 782] | ≥ 70% |
| CC(=NOCC(C)(C)CON=C(C)c1cccc(Cc2ccccc2)n1)c1cccc(C)n1 [Compound 364] | ≥ 70% |
| CCOc1cc(C)nc(C(C)=NOCC(C)CON=C(C)c2cc(OCC)cc(C)n2)c1 (centres unmarked) [Compound 683] | ≥ 70% |
| CC(=NOCC(C)(C)CON=C(C)c1cccc(C(C)C)n1)c1cccc(C)n1 [Compound 491] | ≥ 70% |
| CC(=NOCC(C)(C)CON=C(C)c1ccc2c(n1)CCCC2)c1ccc2c(n1)CCCC2 [Compound 303] | ≥ 70% |
| CCCC(CON=C(C)c1cc(C)cc(C)n1)CON=C(C)c1cc(C)cc(C)n1 (centres unmarked) [Compound 555] | ≥ 70% |
| CCC(=NOCC(C)(C)CON=C(CC)c1cc(C)cc(C)n1)c1cc(C)cc(C)n1 (mixture of isomers) [Compound 571] | ≥ 70% |
| CC(=NOCC(CON=C(C)c1cccc(C)n1)Cc1ccccc1)c1cccc(C)n1 (centres unmarked) [Compound 583] | ≥ 70% |
| CC(=NOCC1(CON=C(C)c2ccc(C)c(C)n2)CC1)c1ccc(C)c(C)n1 [Compound 315] | ≥ 70% |
| CC(=NOCC(CON=C(C)c1cc(C)cc(C)n1)c1ccccc1)c1cc(C)cc(C)n1 (centres unmarked) [Compound 554] | ≥ 70% |
| CCC(C)(CON=C(C)c1cccc(C)n1)CON=C(C)c1cccc(C)n1 (centres unmarked) [Compound 788] | ≥ 70% |

System: Puccinia recondita
Assay: Puccinia test (wheat)/protective
Assay type: in vivo
Conditions: active compound concentration 500 ppm, protective, evaluation 8-10 days after inoculation

| Structure (SMILES) | efficacy |
| --- | --- |
| COC(CON=C(C)c1cc(C)cc(C)n1)CON=C(C)c1cc(C)cc(C)n1 (centres unmarked) [Compound 552] | ≥ 70% |
| CC(=NOCC1(CON=C(C)c2cc(C)cc(C)n2)CCCCC1)c1cc(C)cc(C)n1 [Compound 553] | ≥ 70% |
| CC(=NOCCCCCCON=C(C)c1cc(C)cc(C)n1)c1cccc(C)n1 [Compound 460] | ≥ 70% |
| CC[Si](CC)(CON=C(C)c1cccc(C)n1)CON=C(C)c1cccc(C)n1 [Compound 782] | ≥ 70% |
| CC(=NOCC(C)(C)CON=C(C)c1cccc(Cc2ccccc2)n1)c1cccc(C)n1 [Compound 364] | ≥ 70% |
| CCOc1cc(C)nc(C(C)=NOCC(C)CON=C(C)c2cc(OCC)cc(C)n2)c1 (centres unmarked) [Compound 683] | ≥ 70% |
| CC(=NOCC(C)(C)CON=C(C)c1cccc(C(C)C)n1)c1cccc(C)n1 [Compound 491] | ≥ 70% |
| CC(=NOCC(C)(C)CON=C(C)c1ccc2c(n1)CCCC2)c1ccc2c(n1)CCCC2 [Compound 303] | ≥ 70% |
| CCCC(CON=C(C)c1cc(C)cc(C)n1)CON=C(C)c1cc(C)cc(C)n1 (centres unmarked) [Compound 555] | ≥ 70% |
| CCC(=NOCC(C)(C)CON=C(CC)c1cc(C)cc(C)n1)c1cc(C)cc(C)n1 (mixture of isomers) [Compound 571] | ≥ 70% |
| CC(=NOCC(CON=C(C)c1cccc(C)n1)Cc1ccccc1)c1cccc(C)n1 (centres unmarked) [Compound 583] | ≥ 70% |
| CC(=NOCC1(CON=C(C)c2ccc(C)c(C)n2)CC1)c1ccc(C)c(C)n1 [Compound 315] | ≥ 70% |
| CC(=NOCC(CON=C(C)c1cc(C)cc(C)n1)c1ccccc1)c1cc(C)cc(C)n1 (centres unmarked) [Compound 554] | ≥ 70% |
| CCC(C)(CON=C(C)c1cccc(C)n1)CON=C(C)c1cccc(C)n1 (centres unmarked) [Compound 788] | ≥ 70% |

System: Botrytis cinerea
Assay: Botrytis test (bean)/protective
Assay type: in vivo
Conditions: active compound concentration 250 ppm, protective, evaluation 2 days after inoculation

| Structure (SMILES) | efficacy |
| --- | --- |
| COC(CON=C(C)c1cc(C)cc(C)n1)CON=C(C)c1cc(C)cc(C)n1 (centres unmarked) [Compound 552] | ≥ 70% |
| CC(=NOCC1(CON=C(C)c2cc(C)cc(C)n2)CCCCC1)c1cc(C)cc(C)n1 [Compound 553] | ≥ 70% |
| CC(=NOCCCCCCON=C(C)c1cc(C)cc(C)n1)c1cccc(C)n1 [Compound 460] | ≥ 70% |
| CC(=NOCC(C)(C)CON=C(C)c1cccc(Cc2ccccc2)n1)c1cccc(C)n1 [Compound 364] | ≥ 70% |
| CCOc1cc(C)nc(C(C)=NOCC(C)CON=C(C)c2cc(OCC)cc(C)n2)c1 (centres unmarked) [Compound 683] | ≥ 70% |
| CC(=NOCC(C)(C)CON=C(C)c1ccc2c(n1)CCCC2)c1ccc2c(n1)CCCC2 [Compound 303] | ≥ 70% |
| CCCC(CON=C(C)c1cc(C)cc(C)n1)CON=C(C)c1cc(C)cc(C)n1 (centres unmarked) [Compound 555] | ≥ 70% |
| CCC(=NOCC(C)(C)CON=C(CC)c1cc(C)cc(C)n1)c1cc(C)cc(C)n1 (mixture of isomers) [Compound 571] | ≥ 70% |
| CC(=NOCC1(CON=C(C)c2ccc(C)c(C)n2)CC1)c1ccc(C)c(C)n1 [Compound 315] | ≥ 70% |
| CC(=NOCC(CON=C(C)c1cc(C)cc(C)n1)c1ccccc1)c1cc(C)cc(C)n1 (centres unmarked) [Compound 554] | ≥ 70% |
| CCC(C)(CON=C(C)c1cccc(C)n1)CON=C(C)c1cccc(C)n1 (centres unmarked) [Compound 788] | ≥ 70% |
